# The supplement of paper PMC12819154, “High-throughput peptide-centric local stability assay extends protein–ligand identification to membrane proteins, tissues and bacteria” (Nature Structural & Molecular Biology, 2025)
# Protein sequences, listed by entry. Tags and fused reporters are not part of them. Lines headed by an entry give the natural chain unless they say otherwise; changes in a name come on top.
# UniProt Q9NXE4: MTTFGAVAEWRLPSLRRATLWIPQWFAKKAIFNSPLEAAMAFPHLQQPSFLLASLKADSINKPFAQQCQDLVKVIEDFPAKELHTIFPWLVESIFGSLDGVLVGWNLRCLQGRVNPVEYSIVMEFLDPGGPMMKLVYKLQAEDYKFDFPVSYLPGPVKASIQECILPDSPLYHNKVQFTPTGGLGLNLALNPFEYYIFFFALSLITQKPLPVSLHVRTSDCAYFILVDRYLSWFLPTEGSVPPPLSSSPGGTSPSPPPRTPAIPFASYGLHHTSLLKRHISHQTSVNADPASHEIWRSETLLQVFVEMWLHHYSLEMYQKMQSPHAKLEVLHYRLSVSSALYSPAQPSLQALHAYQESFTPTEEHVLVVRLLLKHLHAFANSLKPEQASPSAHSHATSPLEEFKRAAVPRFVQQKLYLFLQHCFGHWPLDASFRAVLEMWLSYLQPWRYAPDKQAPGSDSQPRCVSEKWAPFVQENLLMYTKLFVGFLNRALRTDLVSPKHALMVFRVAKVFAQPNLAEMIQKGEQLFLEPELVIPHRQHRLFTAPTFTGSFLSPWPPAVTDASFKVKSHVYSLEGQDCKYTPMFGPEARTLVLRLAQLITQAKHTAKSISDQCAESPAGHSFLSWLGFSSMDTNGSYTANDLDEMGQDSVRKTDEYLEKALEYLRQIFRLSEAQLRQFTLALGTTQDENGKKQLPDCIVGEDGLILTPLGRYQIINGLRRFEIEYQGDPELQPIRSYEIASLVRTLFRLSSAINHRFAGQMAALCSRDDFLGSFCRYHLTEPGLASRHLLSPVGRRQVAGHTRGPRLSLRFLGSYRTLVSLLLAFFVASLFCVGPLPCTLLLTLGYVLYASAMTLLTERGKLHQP
# UniProt Q9NYF3: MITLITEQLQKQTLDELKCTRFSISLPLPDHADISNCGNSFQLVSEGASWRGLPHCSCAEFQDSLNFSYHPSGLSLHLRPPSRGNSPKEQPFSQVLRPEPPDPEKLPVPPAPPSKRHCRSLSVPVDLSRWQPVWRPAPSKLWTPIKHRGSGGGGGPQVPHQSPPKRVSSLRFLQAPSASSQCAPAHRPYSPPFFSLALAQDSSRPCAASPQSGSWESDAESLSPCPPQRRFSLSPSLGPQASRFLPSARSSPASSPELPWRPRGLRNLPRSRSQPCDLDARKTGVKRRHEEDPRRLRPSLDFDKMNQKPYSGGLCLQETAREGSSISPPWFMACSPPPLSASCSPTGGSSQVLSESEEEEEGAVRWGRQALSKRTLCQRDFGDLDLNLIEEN
# UniProt Q9NYY8: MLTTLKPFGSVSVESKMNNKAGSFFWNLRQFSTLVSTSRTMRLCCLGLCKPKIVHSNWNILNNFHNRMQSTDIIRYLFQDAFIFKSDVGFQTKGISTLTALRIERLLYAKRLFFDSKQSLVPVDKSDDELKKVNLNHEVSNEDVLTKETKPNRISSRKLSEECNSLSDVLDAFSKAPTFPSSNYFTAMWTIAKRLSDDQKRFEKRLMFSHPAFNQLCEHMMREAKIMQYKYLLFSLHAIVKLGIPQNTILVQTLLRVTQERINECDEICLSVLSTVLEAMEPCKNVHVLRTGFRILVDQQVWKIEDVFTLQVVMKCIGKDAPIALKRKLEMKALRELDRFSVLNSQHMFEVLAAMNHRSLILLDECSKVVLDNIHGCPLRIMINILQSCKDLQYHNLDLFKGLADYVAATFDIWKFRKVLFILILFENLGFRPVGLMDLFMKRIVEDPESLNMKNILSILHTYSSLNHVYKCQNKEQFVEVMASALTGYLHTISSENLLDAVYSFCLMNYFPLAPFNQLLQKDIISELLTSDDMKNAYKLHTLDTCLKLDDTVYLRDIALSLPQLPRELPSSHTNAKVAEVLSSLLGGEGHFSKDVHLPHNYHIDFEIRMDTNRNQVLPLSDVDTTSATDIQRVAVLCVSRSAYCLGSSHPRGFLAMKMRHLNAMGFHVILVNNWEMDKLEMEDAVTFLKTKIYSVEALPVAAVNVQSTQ
# UniProt Q9NWZ8: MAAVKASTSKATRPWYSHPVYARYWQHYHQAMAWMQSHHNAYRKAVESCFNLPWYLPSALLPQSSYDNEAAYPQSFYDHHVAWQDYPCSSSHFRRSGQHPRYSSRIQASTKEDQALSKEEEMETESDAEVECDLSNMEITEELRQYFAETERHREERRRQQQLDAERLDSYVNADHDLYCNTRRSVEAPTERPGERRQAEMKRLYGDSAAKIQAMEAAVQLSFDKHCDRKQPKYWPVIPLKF
# UniProt Q9UH62: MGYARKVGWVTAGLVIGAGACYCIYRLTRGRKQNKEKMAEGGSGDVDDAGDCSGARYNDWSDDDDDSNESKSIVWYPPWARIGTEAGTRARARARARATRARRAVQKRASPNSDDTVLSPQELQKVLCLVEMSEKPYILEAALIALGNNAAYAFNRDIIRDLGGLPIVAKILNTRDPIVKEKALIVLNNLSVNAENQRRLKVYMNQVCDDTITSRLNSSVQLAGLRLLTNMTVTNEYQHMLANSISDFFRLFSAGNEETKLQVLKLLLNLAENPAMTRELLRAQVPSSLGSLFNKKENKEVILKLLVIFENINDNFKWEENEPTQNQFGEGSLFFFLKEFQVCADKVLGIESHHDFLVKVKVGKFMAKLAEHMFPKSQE
# UniProt Q9NX05: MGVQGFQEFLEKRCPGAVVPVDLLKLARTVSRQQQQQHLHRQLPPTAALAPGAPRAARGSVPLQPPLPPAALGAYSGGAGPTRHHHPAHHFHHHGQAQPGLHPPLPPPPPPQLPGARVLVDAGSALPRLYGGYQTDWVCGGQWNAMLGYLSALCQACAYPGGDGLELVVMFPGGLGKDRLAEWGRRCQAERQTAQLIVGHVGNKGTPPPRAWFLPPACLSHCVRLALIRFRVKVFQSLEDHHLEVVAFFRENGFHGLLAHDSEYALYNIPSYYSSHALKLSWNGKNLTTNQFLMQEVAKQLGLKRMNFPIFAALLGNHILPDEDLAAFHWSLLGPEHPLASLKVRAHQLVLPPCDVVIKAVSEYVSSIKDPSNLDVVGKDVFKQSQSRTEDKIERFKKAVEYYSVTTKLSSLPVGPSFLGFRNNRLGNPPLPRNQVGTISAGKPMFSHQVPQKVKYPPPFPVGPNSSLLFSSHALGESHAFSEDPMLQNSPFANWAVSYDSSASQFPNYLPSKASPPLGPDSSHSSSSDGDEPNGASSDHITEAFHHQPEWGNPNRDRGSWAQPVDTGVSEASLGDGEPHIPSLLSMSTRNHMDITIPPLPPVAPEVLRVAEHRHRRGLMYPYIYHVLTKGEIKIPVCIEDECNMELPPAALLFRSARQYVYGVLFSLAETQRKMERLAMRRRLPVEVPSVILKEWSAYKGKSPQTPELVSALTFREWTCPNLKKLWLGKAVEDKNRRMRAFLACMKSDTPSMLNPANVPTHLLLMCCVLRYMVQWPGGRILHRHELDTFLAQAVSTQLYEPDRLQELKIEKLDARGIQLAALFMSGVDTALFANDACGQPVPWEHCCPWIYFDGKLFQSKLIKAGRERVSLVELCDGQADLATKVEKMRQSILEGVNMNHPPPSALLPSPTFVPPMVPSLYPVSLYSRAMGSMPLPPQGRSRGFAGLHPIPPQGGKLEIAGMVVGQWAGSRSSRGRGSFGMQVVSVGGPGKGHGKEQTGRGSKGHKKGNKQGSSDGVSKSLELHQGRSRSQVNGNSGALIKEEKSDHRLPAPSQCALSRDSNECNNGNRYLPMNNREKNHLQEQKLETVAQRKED
# UniProt Q9P2G1: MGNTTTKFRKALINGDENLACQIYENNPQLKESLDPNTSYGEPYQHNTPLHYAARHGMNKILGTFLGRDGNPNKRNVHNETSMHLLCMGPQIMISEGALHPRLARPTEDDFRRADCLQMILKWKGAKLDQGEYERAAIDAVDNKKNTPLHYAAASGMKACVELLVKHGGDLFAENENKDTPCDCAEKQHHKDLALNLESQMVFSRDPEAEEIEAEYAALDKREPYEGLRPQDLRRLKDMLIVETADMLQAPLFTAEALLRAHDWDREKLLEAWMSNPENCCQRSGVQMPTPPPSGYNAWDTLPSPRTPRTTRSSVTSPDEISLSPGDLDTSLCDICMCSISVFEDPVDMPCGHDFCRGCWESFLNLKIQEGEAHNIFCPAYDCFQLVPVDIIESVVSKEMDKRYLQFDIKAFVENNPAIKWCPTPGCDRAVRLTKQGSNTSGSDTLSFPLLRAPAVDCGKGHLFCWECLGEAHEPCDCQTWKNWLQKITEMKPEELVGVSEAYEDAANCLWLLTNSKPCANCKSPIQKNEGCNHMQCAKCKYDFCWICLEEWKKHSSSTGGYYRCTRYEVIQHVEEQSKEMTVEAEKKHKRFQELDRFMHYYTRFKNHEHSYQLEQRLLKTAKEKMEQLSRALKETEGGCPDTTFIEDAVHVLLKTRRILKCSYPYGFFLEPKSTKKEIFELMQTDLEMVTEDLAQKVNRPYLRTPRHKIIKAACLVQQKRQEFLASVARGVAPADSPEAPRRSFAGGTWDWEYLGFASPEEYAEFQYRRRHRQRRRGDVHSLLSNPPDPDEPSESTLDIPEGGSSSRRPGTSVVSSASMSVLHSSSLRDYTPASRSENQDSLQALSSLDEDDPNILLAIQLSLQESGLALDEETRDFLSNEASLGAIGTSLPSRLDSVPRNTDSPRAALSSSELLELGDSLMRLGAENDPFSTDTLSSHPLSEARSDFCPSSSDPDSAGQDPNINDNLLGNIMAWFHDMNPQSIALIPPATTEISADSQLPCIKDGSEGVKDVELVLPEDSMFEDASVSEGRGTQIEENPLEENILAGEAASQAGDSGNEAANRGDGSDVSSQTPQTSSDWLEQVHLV
# UniProt Q9NX74: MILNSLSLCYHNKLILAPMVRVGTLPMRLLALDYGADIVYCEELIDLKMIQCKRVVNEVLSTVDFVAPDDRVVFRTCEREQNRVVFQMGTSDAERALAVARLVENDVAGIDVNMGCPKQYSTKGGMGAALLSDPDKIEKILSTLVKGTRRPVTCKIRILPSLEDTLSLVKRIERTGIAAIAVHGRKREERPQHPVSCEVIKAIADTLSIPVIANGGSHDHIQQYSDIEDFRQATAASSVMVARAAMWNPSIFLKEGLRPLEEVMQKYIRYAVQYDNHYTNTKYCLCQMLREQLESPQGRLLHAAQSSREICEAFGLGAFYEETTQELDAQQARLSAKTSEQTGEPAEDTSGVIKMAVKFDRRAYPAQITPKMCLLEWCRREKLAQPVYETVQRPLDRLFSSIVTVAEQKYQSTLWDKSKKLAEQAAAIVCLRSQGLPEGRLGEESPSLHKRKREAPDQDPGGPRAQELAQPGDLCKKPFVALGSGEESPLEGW
# UniProt Q9NZN4: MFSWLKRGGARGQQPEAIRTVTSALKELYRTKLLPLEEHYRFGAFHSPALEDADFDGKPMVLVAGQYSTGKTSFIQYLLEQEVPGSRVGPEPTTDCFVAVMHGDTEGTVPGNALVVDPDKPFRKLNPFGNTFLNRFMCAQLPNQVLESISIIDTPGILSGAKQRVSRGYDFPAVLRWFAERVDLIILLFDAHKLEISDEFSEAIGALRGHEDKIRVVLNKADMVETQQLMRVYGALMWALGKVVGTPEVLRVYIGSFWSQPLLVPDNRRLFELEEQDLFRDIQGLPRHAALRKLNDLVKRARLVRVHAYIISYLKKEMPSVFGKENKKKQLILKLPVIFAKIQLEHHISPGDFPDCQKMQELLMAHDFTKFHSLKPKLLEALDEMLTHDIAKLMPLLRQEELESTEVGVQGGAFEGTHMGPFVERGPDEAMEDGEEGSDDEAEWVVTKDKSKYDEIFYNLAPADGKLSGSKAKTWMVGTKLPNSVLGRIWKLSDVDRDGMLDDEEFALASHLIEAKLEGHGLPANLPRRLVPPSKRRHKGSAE
# UniProt Q9UH92: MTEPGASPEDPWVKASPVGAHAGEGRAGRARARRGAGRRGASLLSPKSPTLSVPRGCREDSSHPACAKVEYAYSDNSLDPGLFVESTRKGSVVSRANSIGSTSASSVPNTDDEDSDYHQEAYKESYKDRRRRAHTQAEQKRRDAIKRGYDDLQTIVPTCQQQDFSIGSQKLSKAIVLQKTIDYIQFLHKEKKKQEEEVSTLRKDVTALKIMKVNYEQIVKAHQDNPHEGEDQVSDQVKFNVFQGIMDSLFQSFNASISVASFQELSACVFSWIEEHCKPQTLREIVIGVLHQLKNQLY
# UniProt Q9UBP9: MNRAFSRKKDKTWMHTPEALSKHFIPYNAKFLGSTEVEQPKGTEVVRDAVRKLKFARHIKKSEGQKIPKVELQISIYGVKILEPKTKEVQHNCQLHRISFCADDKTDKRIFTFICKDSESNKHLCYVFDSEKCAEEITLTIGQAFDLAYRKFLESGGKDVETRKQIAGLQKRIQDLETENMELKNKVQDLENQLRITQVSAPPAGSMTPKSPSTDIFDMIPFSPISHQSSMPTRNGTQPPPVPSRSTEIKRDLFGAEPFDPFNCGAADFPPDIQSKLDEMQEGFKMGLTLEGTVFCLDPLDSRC
# UniProt Q9UEU5: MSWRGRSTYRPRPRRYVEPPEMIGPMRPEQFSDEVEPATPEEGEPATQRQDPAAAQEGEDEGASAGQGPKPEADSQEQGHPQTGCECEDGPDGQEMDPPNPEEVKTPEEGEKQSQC
# This is one part of the list. Most values lie at the level of the controls, where differences are scatter.
# Compound: Cc1nc(Nc2ncc(C(=O)Nc3c(C)cccc3Cl)s2)cc(N2CCN(CCO)CC2)n1 [dasatinib]
# Experiment: log2 fold change of tryptic peptide abundance, ligand vs vehicle (limited proteolysis) (log2 ratio); higher = more trypsin-susceptible (destabilized)
# Conditions: ligand concentration: 5 uM; sample: K562 cleared lysate
row,Target,log2 fold change
1,"SMPD4 (peptide sequence: DDFLGSFCR, peptide start residue: 769) (UniProt Q9NXE4)",-0.33
2,"FAM53C (peptide sequence: SLSVPVDLSR, peptide start residue: 120) (UniProt Q9NYF3)",-0.108
3,"FASTKD2 (peptide sequence: QSLVPVDKSDDELK, peptide start residue: 118) (UniProt Q9NYY8)",-0.373
4,"EPS15L1 (peptide sequence: ALEKEPVPSALPPSLIPPSKR, peptide start residue: 194) (UniProt Q9UBC2)",0.628
5,"GEMIN8 (peptide sequence: SVEAPTERPGERR, peptide start residue: 185) (UniProt Q9NWZ8)",0.255
6,"NDRG3 (peptide sequence: RDLEIERPILGQNDNK, peptide start residue: 233) (UniProt Q9UGV2)",-0.395
7,"UniProt Q9NXR7 (peptide sequence: ELVQQYHQFQCSR, peptide start residue: 119)",-0.134
8,"UniProt Q9P2S5 (peptide sequence: AGAGPLPSSESK, peptide start residue: 296)",0.11
9,"NLRP2 (peptide sequence: SSLLCLDLGLNHIGVK, peptide start residue: 925) (UniProt Q9NX02)",0.634
10,"STMN3 (peptide sequence: RLEAAEER, peptide start residue: 88) (UniProt Q9NZ72)",0.286
11,"ARMCX3 (peptide sequence: DIIRDLGGLPIVAK, peptide start residue: 157) (UniProt Q9UH62)",-0.589
12,"IMPACT (peptide sequence: NVMVVVSR, peptide start residue: 259) (UniProt Q9P2X3)",-0.33
13,"SIPA1L2 (peptide sequence: VINAENAAHKSEK, peptide start residue: 788) (UniProt Q9P2F8)",-0.419
14,"TXNDC16 (peptide sequence: KEPIETLR, peptide start residue: 789) (UniProt Q9P2K2)",-0.306
15,"DNMT3B (peptide sequence: NNNSVSSR, peptide start residue: 107) (UniProt Q9UBC3)",0.386
16,"CPNE7 (peptide sequence: FSALGFGAR, peptide start residue: 433) (UniProt Q9UBL6)",-0.287
17,"FAM120C (peptide sequence: AHQLVLPPCDVVIK, peptide start residue: 271) (UniProt Q9NX05)",-0.0441
18,"FAM120A (peptide sequence: TCNTNPHLNALSTDSACRR, peptide start residue: 1087) (UniProt Q9NZB2)",0.264
19,"UniProt Q9NYW8 (peptide sequence: KVHTEEK, peptide start residue: 477)",-0.0717
20,"ANKIB1 (peptide sequence: WCPTPGCDR, peptide start residue: 421) (UniProt Q9P2G1)",0.164
21,"UniProt Q9NX74 (peptide sequence: AQELAQPGDLCK, peptide start residue: 465)",0.0934
22,"EHD2 (peptide sequence: LEGHGLPANLPR, peptide start residue: 517) (UniProt Q9NZN4)",0.254
23,"UniProt Q9P0L1 (peptide sequence: HSSHLIQHQR, peptide start residue: 226)",0.3
24,"LYAR (peptide sequence: SEEELLVIFNKK, peptide start residue: 350) (UniProt Q9NX58)",-2.01
25,"MLX (peptide sequence: KKQEEEVSTLR, peptide start residue: 192) (UniProt Q9UH92)",-0.395
26,"SPHK1 (peptide sequence: VLVLLNPR, peptide start residue: 17) (UniProt Q9NYA1)",-0.0891
27,"GULP1 (peptide sequence: VELQISIYGVK, peptide start residue: 70) (UniProt Q9UBP9)",0.956
28,"UniProt Q9UEU5 (peptide sequence: TPEEGEKQSQC, peptide start residue: 106)",0.0881

# An excerpt of these results, as tab-separated lines.
row	Target	log2 fold change
4	EPS15L1 (peptide sequence: ALEKEPVPSALPPSLIPPSKR, peptide start residue: 194) (UniProt Q9UBC2)	0.628
5	GEMIN8 (peptide sequence: SVEAPTERPGERR, peptide start residue: 185) (UniProt Q9NWZ8)	0.255
